Results as given in paper PMC6763788.
No constants are given. Whether binding was seen depends on the method and setting. Binding seen in cells or lysates may run through a third protein. Some entries that bind do so weakly or less than the wild type. Sequences can lack the tags named with a protein.

Target: T1, Flag-RITA (UniProt Q96K30)
T1 sequence: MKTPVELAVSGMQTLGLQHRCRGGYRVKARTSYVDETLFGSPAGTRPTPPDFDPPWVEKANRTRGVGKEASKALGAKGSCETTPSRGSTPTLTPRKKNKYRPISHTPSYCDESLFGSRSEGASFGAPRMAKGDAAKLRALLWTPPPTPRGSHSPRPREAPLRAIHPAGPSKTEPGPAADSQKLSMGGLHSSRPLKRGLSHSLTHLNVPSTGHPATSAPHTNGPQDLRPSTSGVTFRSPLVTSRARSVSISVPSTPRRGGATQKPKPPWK
Test: co-IP; HeLa cells transfected with Flag empty vector or Flag-RITA; lysates in RIPA buffer (600-800 µg); Flag-M2 affinity gel, 4 °C overnight, washed three times; western blot

binding: binds
B1: lipoma-preferred partner (LPP), endogenous in HeLa (protein, UniProt Q93052 1-612)
chain: MSHPSWLPPKSTGEPLGHVPARMETTHSFGNPSISVSTQQPPKKFAPVVAPKPKYNPYKQPGGEGDFLPPPPPPLDDSSALPSISGNFPPPPPLDEEAFKVQGNPGGKTLEERRSSLDAEIDSLTSILADLECSSPYKPRPPQSSTGSTASPPVSTPVTGHKRMVIPNQPPLTATKKSTLKPQPAPQAGPIPVAPIGTLKPQPQPVPASYTTASTSSRPTFNVQVKSAQPSPHYMAAPSSGQIYGSGPQGYNTQPVPVSGQCPPPSTRGGMDYAYIPPPGLQPEPGYGYAPNQGRYYEGYYAAGPGYGGRNDSDPTYGQQGHPNTWKREPGYTPPGAGNQNPPGMYPVTGPKKTYITDPVSAPCAPPLQPKGGHSGQLGPSSVAPSFRPEDELEHLTKKMLYDMENPPADEYFGRCARCGENVVGEGTGCTAMDQVFHVDCFTCIICNNKLRGQPFYAVEKKAYCEPCYINTLEQCNVCSKPIMERILRATGKAYHPHCFTCVMCHRSLDGIPFTVDAGGLIHCIEDFHKKFAPRCSVCKEPIMPAPGQEETVRIVALDRDFHVHCYRCEDCGGLLSEGDNQGCYPLDGHILCKTCNSARIRVLTAKASTDL
